Source: patent publication US20110015138A1 (GENUS ONCOLOGY, published 2011)
Results are given in words; binding and its absence hold for the method and conditions named. Some results given as binding are weak or reduced against the parent protein; the word gives no strength. Tags and fused reporters may be left off the sequences shown.

By UniProt entry, the sequences of proteins in these tests, tags left out.
UniProt P40763: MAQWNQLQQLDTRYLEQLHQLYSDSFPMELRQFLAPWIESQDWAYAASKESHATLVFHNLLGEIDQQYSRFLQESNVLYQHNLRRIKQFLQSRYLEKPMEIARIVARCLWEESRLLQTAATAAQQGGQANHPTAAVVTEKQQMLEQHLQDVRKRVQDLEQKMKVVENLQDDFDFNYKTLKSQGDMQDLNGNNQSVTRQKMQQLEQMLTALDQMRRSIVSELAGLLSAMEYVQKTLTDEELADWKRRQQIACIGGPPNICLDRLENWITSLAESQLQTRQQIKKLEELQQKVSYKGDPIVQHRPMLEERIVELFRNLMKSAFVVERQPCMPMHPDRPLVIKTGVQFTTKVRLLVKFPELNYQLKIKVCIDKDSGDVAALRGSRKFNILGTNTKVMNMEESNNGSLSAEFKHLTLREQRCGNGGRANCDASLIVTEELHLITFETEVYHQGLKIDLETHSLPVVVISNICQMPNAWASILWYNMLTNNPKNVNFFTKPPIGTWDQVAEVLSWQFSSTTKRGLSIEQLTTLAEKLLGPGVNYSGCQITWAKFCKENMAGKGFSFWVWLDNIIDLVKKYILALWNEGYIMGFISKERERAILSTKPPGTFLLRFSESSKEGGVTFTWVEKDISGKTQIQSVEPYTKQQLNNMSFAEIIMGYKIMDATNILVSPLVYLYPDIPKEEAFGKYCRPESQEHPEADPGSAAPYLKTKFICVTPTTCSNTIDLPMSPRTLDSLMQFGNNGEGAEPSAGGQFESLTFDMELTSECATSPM
UniProt Q04206: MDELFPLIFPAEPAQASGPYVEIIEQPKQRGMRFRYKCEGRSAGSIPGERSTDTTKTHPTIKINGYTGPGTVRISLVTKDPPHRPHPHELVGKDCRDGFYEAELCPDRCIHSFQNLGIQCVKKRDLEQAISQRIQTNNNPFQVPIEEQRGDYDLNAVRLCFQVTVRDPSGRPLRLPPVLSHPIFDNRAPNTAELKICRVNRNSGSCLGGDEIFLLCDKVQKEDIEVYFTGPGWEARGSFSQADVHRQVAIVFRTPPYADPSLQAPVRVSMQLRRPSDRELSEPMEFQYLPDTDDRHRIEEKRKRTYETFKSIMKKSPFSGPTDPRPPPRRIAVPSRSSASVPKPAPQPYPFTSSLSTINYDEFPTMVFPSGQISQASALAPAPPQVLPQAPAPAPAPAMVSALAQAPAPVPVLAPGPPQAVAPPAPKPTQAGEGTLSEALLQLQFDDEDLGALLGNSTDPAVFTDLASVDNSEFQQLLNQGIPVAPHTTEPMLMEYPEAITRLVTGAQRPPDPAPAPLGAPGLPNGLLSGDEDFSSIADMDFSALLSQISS

Legend:
[1] = target: purified recombinant STAT3 (UniProt P40763 1-770, limits assumed); test: GST pull-down of purified recombinant STAT3 with MUC1-CD deletion mutants
[2] = target: T1, purified recombinant NF-κB p65 (UniProt Q04206 1-551, limits assumed); test: GST pull-down of purified recombinant p65 with MUC1-CD deletion mutants
T1 construct: also called purified NF-κB p65

binding [1]: binds | binding [2]: binds
Binder: YEKVSAGNGGSSLSYTNPAVAATSANL (peptide, not shown: a dimerising Fc or GST) [GST-MUC1-CD(46-72)]
